Data as given in PubChem BioAssay AID1259405 (NCATS, 2018)

- Purpose: 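Mouse-designed siRNAs used to find CHO productivity engineering targets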 (primary screen)
- Cells: Chinese hamster CHO-K1 ovary cells with stable secreted eGFP expression
- Reagents: single siRNA against mouse genes, 0.8 pmol siRNA per well (2 µl of 400 nM stock)
- Timing: 3 days
- Read-out: 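Percent of the per-plate non-targeting control median for intracellular GFP per well by laser scanning cytometry and for cell viability by ATP luminescence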
- Reading the numbers: GFP, % of control: higher = more GFP per well, higher productivity; viability (ATP), % of control: higher = more viable cells (more ATP)
- Active means: 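a knock-down is called active if GFP reaches 120% or more of non-targeting control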
The whole screen tested about 50,000 reagents; shown is a random part of them. In the full data, about 4,000 (8%) were called active. 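Mouse siRNA library applied to hamster cells; one well for each siRNA.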 Reagents against one gene are numbered here. No sequences are given here.

Klf6 (Kruppel-like transcription factor 6) #1 | GFP, % of control: 78.5; viability (ATP), % of control: 72; call: inactive
Klf6 (Kruppel-like transcription factor 6) #2 | GFP, % of control: 62.7; viability (ATP), % of control: 55.4; call: inactive
Klf6 (Kruppel-like transcription factor 6) #3 | GFP, % of control: 99.1; viability (ATP), % of control: 101; call: inactive
Vmn1r67 (vomeronasal 1 receptor 67) #1 | GFP, % of control: 93.6; viability (ATP), % of control: 72.3; call: inactive
Vmn1r67 (vomeronasal 1 receptor 67) #2 | GFP, % of control: 91; viability (ATP), % of control: 71.3; call: inactive
Vmn1r67 (vomeronasal 1 receptor 67) #3 | GFP, % of control: 55.7; viability (ATP), % of control: 90.5; call: inactive
Pdzk1 (PDZ domain containing 1) #1 | GFP, % of control: 39.4; viability (ATP), % of control: 42.1; call: inactive
Pdzk1 (PDZ domain containing 1) #2 | GFP, % of control: 91.4; viability (ATP), % of control: 48.3; call: inactive
Pdzk1 (PDZ domain containing 1) #3 | GFP, % of control: 80.7; viability (ATP), % of control: 93.5; call: inactive
Asz1 #1 | GFP, % of control: 65.8; viability (ATP), % of control: 47.4; call: inactive
Asz1 #2 | GFP, % of control: 76.4; viability (ATP), % of control: 94.9; call: inactive
Asz1 #3 | GFP, % of control: 131; viability (ATP), % of control: 84.2; call: active
Fzr1 (fizzy and cell division cycle 20 related 1) #1 | GFP, % of control: 64.8; viability (ATP), % of control: 67.2; call: inactive
Fzr1 (fizzy and cell division cycle 20 related 1) #2 | GFP, % of control: 136; viability (ATP), % of control: 36.3; call: active
Fzr1 (fizzy and cell division cycle 20 related 1) #3 | GFP, % of control: 73.5; viability (ATP), % of control: 56.7; call: inactive
Plcg1 (phospholipase C, gamma 1) #1 | GFP, % of control: 48; viability (ATP), % of control: 77.3; call: inactive
Plcg1 (phospholipase C, gamma 1) #2 | GFP, % of control: 68.8; viability (ATP), % of control: 83.6; call: inactive
Plcg1 (phospholipase C, gamma 1) #3 | GFP, % of control: 50.3; viability (ATP), % of control: 47.4; call: inactive
Prdx6b (peroxiredoxin 6B) #1 | GFP, % of control: 73.9; viability (ATP), % of control: 75.3; call: inactive
Prdx6b (peroxiredoxin 6B) #2 | GFP, % of control: 55.5; viability (ATP), % of control: 64; call: inactive
Prdx6b (peroxiredoxin 6B) #3 | GFP, % of control: 72.2; viability (ATP), % of control: 81.3; call: inactive
Ces4a (carboxylesterase 4A) #1 | GFP, % of control: 58; viability (ATP), % of control: 63.3; call: inactive
Ces4a (carboxylesterase 4A) #2 | GFP, % of control: 82.3; viability (ATP), % of control: 103; call: inactive
Ces4a (carboxylesterase 4A) #3 | GFP, % of control: 46.1; viability (ATP), % of control: 52.5; call: inactive

6 entries from above in another layout.
gene knocked down,reagent no.,"GFP, % of control","viability (ATP), % of control",call
Pdzk1 (PDZ domain containing 1),3,80.7,93.5,inactive
Asz1,1,65.8,47.4,inactive
Asz1,2,76.4,94.9,inactive
Asz1,3,131,84.2,active
Fzr1 (fizzy and cell division cycle 20 related 1),1,64.8,67.2,inactive
Fzr1 (fizzy and cell division cycle 20 related 1),2,136,36.3,active

Next results follow.
Shf (Src homology 2 domain containing F) #1 | GFP, % of control: 60.4; viability (ATP), % of control: 56.3; call: inactive
Shf (Src homology 2 domain containing F) #2 | GFP, % of control: 44.7; viability (ATP), % of control: 9.35; call: inactive
Shf (Src homology 2 domain containing F) #3 | GFP, % of control: 31.8; viability (ATP), % of control: 34.1; call: inactive
Or11m3 (olfactory receptor family 11 subfamily M member 3) #1 | GFP, % of control: 58.3; viability (ATP), % of control: 55.2; call: inactive
Or11m3 (olfactory receptor family 11 subfamily M member 3) #2 | GFP, % of control: 79.6; viability (ATP), % of control: 74.6; call: inactive
Or11m3 (olfactory receptor family 11 subfamily M member 3) #3 | GFP, % of control: 70.6; viability (ATP), % of control: 47.5; call: inactive
Nrep (neuronal regeneration related protein) #1 | GFP, % of control: 76.6; viability (ATP), % of control: 85.9; call: inactive
Nrep (neuronal regeneration related protein) #2 | GFP, % of control: 83.1; viability (ATP), % of control: 73.4; call: inactive
Nrep (neuronal regeneration related protein) #3 | GFP, % of control: 86.6; viability (ATP), % of control: 105; call: inactive
Cc2d1a (coiled-coil and C2 domain containing 1A) #1 | GFP, % of control: 47.9; viability (ATP), % of control: 64.9; call: inactive
Cc2d1a (coiled-coil and C2 domain containing 1A) #2 | GFP, % of control: 87.5; viability (ATP), % of control: 90.1; call: inactive
Cc2d1a (coiled-coil and C2 domain containing 1A) #3 | GFP, % of control: 151; viability (ATP), % of control: 135; call: active
Ank2 (ankyrin 2, brain) #1 | GFP, % of control: 83.3; viability (ATP), % of control: 75.1; call: inactive
Ank2 (ankyrin 2, brain) #2 | GFP, % of control: 83.4; viability (ATP), % of control: 86; call: inactive
Ank2 (ankyrin 2, brain) #3 | GFP, % of control: 91.5; viability (ATP), % of control: 77.3; call: inactive
Hic2 (hypermethylated in cancer 2) #1 | GFP, % of control: 84.1; viability (ATP), % of control: 62.6; call: inactive
Hic2 (hypermethylated in cancer 2) #2 | GFP, % of control: 95.9; viability (ATP), % of control: 51.8; call: inactive
Hic2 (hypermethylated in cancer 2) #3 | GFP, % of control: 79; viability (ATP), % of control: 76.2; call: inactive
